These are yes or no findings as the source states them, for the method shown. Some entries that bind do so weakly or less than the wild type.
Molecular target: 4-5FNIII domain of L1 (recombinant L1 fragment) (human) (UniProt P32004)
Assay: Western blot with recombinant L1 fragments

Sequences of proteins named here, by UniProt entry; tags and fusion partners are left off. Residues count along the entry.
UniProt P32004, residues 920-1115: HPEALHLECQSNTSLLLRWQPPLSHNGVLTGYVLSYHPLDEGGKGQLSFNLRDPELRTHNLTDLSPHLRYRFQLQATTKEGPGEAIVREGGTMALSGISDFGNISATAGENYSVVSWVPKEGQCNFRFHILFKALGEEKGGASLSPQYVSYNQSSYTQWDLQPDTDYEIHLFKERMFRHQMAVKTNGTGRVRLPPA

- binding: binds
B1: monoclonal antibody L1-OV52.24 (antibody, IgG1, V domains shown)
VH: EVQLQQSGAELVRPGALVKLSCKASGFNIKDYYMQWVKQRPEQGLEWIGWIDPENGKTVFDPKFRGKASISADTSSNTAYLQLSSLTSEDTAVYYCARWNPLAFWGQGTLVTVSS
VL: DIVMTQSQKFMSTSVGDRVSVTCKASQNVGTNVAWYQQKPGHSPKALIYSTSYRYSGVPDRFTGSGSGTDFTLTIRNVQSEDLAEYFCQQYNTYPYTFGGGTKLEIK
notes: also called mAb L1-OV52.24; L1CAM mAb OV52.24

Source: patent US20170306015A1 (DEUTSCHES KREBSFORSCHUNGSZENTRUM STIFTUNG DES FFENTLICHEN …, published 2017)
